This is an account of results in patent US20150343067A1, “Monolithic Dosage Form for the Modified Release of an Active Ingredient Combination” (HENNIG ARZNEIMITTEL GMBH & CO. KG, priority 2012, published 2015).

For this data set the following is noted: storage requires protection from light.

Regarding `C(=C\c1ccccc1)/CN1CCN(C(c2ccccc2)c2ccccc2)CC1` [cinnarizine], the “storage stability of the active ingredient” value is “only limited storage stability”.
